# No constants are given. Whether binding was seen depends on the method and setting.
# Sequences of proteins named here, by UniProt entry; tags and fusion partners are left off. A change or cut given only in a name is not applied to a line headed by its entry. Residues count along the entry.
# UniProt P84092, residues 158-435: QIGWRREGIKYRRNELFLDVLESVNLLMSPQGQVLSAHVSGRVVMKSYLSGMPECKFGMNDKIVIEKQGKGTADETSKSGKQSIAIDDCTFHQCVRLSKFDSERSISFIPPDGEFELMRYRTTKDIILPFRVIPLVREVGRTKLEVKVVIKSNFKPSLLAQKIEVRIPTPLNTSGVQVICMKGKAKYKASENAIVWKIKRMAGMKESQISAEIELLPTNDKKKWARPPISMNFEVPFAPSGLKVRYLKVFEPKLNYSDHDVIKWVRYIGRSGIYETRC
# UniProt P06788: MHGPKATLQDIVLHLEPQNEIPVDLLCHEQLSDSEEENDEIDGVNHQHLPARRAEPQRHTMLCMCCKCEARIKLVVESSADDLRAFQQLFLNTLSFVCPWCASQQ
# Target: μ2 subunit of clathrin-adaptor protein 2 (AP2-μ2), residues 158–435, wild type (rat) (UniProt P84092)
# Test: ITC; peptide titrated into recombinant AP2-μ2; 50 mM Tris-HCl (pH 7.5), 500 mM NaCl, 3 mM β-mercaptoethanol; in Fig. 2 peptide 0.2 mM into 10 μM AP2-μ2; both purified
substance,measurement,value
HPV18 E7(25–42) 18-mer peptide (from UniProt P06788 25-42),binding,no binding
